Measured values reported in patent publication US20020142436A1, “Human adenylate cyclase and use therefor” (priority 1995, published 2002).
Some entries share one result that the patent states for a list of compounds.

Test system: AtT20 cells
Assay: CRF-induced cAMP accumulation in AtT20 cells
Format: cell-based, mouse
Details: calyculi A 1-30 nmol/l, okadaic acid 0.2-5 μmol/l; concentration-dependent
Experimental: Experiments for cAMP were all carried out in Hanks balanced salt solution containing 2 mM CaCl2 and 1 mM MgSO4 buffered with 25 mM HEPES pH 7.4 and supplemented with 0.25% (w/v) of bovine serum albumin. The cells were preincubated in serum free medium for 1 hour, after which blockers of phosphosdiesterase (isobutylmethylxanthine 0.5 mM (IBMX) and/or rolipram 0.1 mM) along with various other treatments were applied for 30 minutes at 37° C. Subsequently the cells were cooled to 22° C. for 5 minutes in a water bath and agonists were added for 10 minutes. The reaction was stopped by the addition of 0.2 mol/l HCl to achieve a final concentration of 0.1 mol/l (Brooker et al, (1979) Adv. in Cyclic Nucl. Res. Vol. 10, G. Brooker, P. Greengard and G. A. Robinson, Raven Press, New York, 2-34).
In some experiments cells were preincubated for 30 minutes in medium containing 2 mmol/l EGTA and no added Ca^2+, supplemented with 5 μmol/l A23187 and 2.5 μmol/l nifedipine in order to deplete rapidly mobilized cellular stores of Ca^2+. […] The rationale for this pretreatment is that calcineurin reportedly influences L-channel activity (Lai et al, (1993) J. Neurochem. 61:1333-1339; and Armstrong et al, (1987) Proc. Natl. Acad. Sci. U.S.A. 84:2518-2522), whereas the treatment regimen used here would make Ca^2+ entry independent of this regulation. […]

Compound | inhibition of CRF-induced cAMP accumulation
C=C1[C@@H](O)[C@@H]2O[C@]3(CC[C@H](/C=C/[C@@H](C)[C@@H]4CC(C)=C[C@@]5(O[C@H](C[C@@](C)(O)C(=O)O)CC[C@H]5O)O4)O3)CC[C@H]2O[C@@H]1[C@@H](O)C[C@H](C)[C@H]1O[C@@]2(CCCCO2)CC[C@H]1C [okadaic acid] | up to 80%
calyculi A | up to 80%
